Source: PubChem BioAssay AID602196 (INSERM, 2012)
Screen: 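Genes whose knock-down alters cisplatin killing of lung cancer cells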. Cells: human A549 lung cancer cells. Reagent: siRNA pair against human genes. Timing: 48 h transfection before cisplatin; time from cisplatin to read-out not stated. Conditions: cisplatin at a dose killing half of control-siRNA cells; exact dose and duration not given. Detection: 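Shift in cisplatin death relative to control siRNA, from -50 (all cells die) to +50 (no cells die); siRNAs harmful on their own scored 0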. Direction: two-siRNA summed score (-2 to +2): higher = both siRNAs protect from cisplatin killing; -2 means both sensitise; mean protection from cisplatin (shift in death) and protection from cisplatin (shift in death), siRNA C and protection from cisplatin (shift in death), siRNA D: higher = protection from cisplatin killing. Hit rule: 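siRNAs harmful alone (LDH or WST-1) get 0; others get +1 for less and -1 for more cisplatin killing; genes are active when the two siRNAs give the same sign, summing to ±2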. Calls: active = both siRNAs shift cisplatin killing the same way; inactive = no consistent shift, or siRNA harmful alone.
In all, the deposit lists about 23,000 reagents; below is a part drawn at random. 455 of all reagents (2%) count as active. 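Active includes both protection and sensitisation; some change values fall well beyond the stated -50 to +50 range.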 Entries without a mark were called inactive. Reagent sequences are not shown. The record does not give: the amount of reagent.

| gene knocked down | two-siRNA summed score (-2 to +2) | mean protection from cisplatin (shift in death) (%) | protection from cisplatin (shift in death), siRNA C (%) | protection from cisplatin (shift in death), siRNA D (%) |
| --- | --- | --- | --- | --- |
| ZNF471 (GeneID 57573) | 0 | -5.2 | -7 | -3.4 |
| IL7 (GeneID 3574) | 0 | -6.6 | -9.2 | -3.9 |
| C1orf210 (GeneID 149466) | 0 | -6.4 | -6.8 | -6 |
| SLC4A3 (GeneID 6508) | 0 | 7.1 | 13.1 | 1 |
| LOC440539 | 1 | 12.8 | 21 | 4.5 |
| MARK3 (GeneID 4140) | 1 | 16.8 | 28.5 | 5.1 |
| SNPH (GeneID 9751) | 1 | 13.9 | 14.4 | 13.4 |
| CIZ1 (GeneID 25792) | 0 | -8.9 | -13.4 | -4.4 |
| PIKFYVE (GeneID 200576) | 2 (active) | 20.8 | 10.5 | 31.2 |
| LOC441284 | 1 | 10.5 | 6.9 | 14.1 |
| EPHX1 (GeneID 2052) | 0 | -3 | -7.6 | 1.5 |
| SMARCD1 (GeneID 6602) | 1 | 13.9 | 15 | 12.7 |
| ACRV1 (GeneID 56) | -1 | 1.9 | -5.2 | 9 |
| ZNF414 (GeneID 84330) | 0 | 1.5 | -1.3 | 4.3 |
| ARF5 (GeneID 381) | 0 | 3.7 | 4.8 | 2.5 |
| FBXL14 (GeneID 144699) | 1 | 18.2 | 12.2 | 24.2 |
| FAM217A (GeneID 222826) | 0 | 1.7 | 2.9 | 0.5 |
| RPS17 (GeneID 6218) | 0 | 30.2 | 24.9 | 35.5 |
| FAM174C (GeneID 55009) | 0 | 0.1 | -13.7 | 13.9 |
| RPP21 (GeneID 79897) | -1 | -11.5 | -25.4 | 2.4 |
| CD8A (GeneID 925) | -1 | -19.2 | -18.5 | -20 |
| GNG8 (GeneID 94235) | 0 | 19.6 | 37.2 | 2 |
| CCNYL1 (GeneID 151195) | 0 | 7.4 | 14.2 | 0.7 |
| BCAM (GeneID 4059) | 0 | -18.7 | -20.5 | -16.8 |
| ASZ1 (GeneID 136991) | 1 | 3.6 | 7.6 | -0.4 |
| SNX20 (GeneID 124460) | 0 | 5.2 | -4 | 14.4 |
| LOC440174 | 1 | 6.3 | -5.4 | 18.1 |

Part of the list above, reduced to “two-siRNA summed score (-2 to +2)”:
ZNF414 (GeneID 84330): 0
ARF5 (GeneID 381): 0
FBXL14 (GeneID 144699): 1
FAM217A (GeneID 222826): 0
RPS17 (GeneID 6218): 0
FAM174C (GeneID 55009): 0
RPP21 (GeneID 79897): -1
CD8A (GeneID 925): -1
GNG8 (GeneID 94235): 0
CCNYL1 (GeneID 151195): 0

Continued.
| gene knocked down | two-siRNA summed score (-2 to +2) | mean protection from cisplatin (shift in death) (%) | protection from cisplatin (shift in death), siRNA C (%) | protection from cisplatin (shift in death), siRNA D (%) |
| --- | --- | --- | --- | --- |
| TEDDM1 (GeneID 127670) | 0 | -0.2 | 6.7 | -7.2 |
| DCLRE1B (GeneID 64858) | 0 | -1 | -3.3 | 1.3 |
| ORMDL1 (GeneID 94101) | 0 | -7.2 | 7.5 | -21.8 |
| PWWP3A (GeneID 84939) | 0 | -4.1 | 1.5 | -9.7 |
| ALDH18A1 (GeneID 5832) | 0 | 6.5 | 5 | 8 |
| LOC392208 | 1 | 3.7 | 11.3 | -3.9 |
| IKZF4 (GeneID 64375) | 0 | 4.9 | 10.9 | -1.1 |
| RCC2 (GeneID 55920) | 0 | 17.6 | 19.6 | 15.7 |
| PEX5 (GeneID 5830) | 0 | 10.4 | 9.2 | 11.6 |
| GATD1 (GeneID 347862) | -1 | -2.2 | 7.7 | -12 |
| TRABD (GeneID 80305) | 0 | -1.4 | -8.2 | 5.3 |
| STXBP5L (GeneID 9515) | 0 | 4.6 | 12.8 | -3.5 |
| RHBDF1 (GeneID 64285) | 0 | 17.8 | 33.8 | 1.7 |
| BAGE2 (GeneID 85319) | 0 | -2.8 | 4.7 | -10.3 |
| PRMT6 (GeneID 55170) | 0 | -0.7 | -11.1 | 9.7 |
| LOC401058 | 0 | 0.3 | -15.8 | 16.4 |
| GPX7 (GeneID 2882) | 0 | 19.1 | 11.5 | 26.7 |
| SNX25 (GeneID 83891) | -1 | -13.8 | -17.2 | -10.4 |
| MRS2 (GeneID 57380) | 0 | 2.4 | 3.8 | 0.9 |
| RPRML (GeneID 388394) | 0 | 0.2 | -6.1 | 6.5 |
| TMEM257 (retired record) (GeneID 9142) | 0 | -4.9 | 3.5 | -13.2 |
| RGS4 (GeneID 5999) | 0 | 4 | 3.5 | 4.5 |
| CDK1 (GeneID 983) | 1 | 8.1 | 10.7 | 5.4 |
| MUL1 (GeneID 79594) | 2 (active) | 26.7 | 28.9 | 24.5 |
| CPNE1 (GeneID 8904) | 0 | -12.9 | -13 | -12.9 |
| RPS7 (GeneID 6201) | 0 | 26.8 | 22 | 31.6 |
| LOC401307 | 0 | 2.2 | 7.2 | -2.8 |
| LYZL1 (GeneID 84569) | 0 | 3.7 | -3.6 | 11 |
| ILDR2 (GeneID 387597) | 1 | 12.8 | 4.5 | 21.1 |
| THRAP3 (GeneID 9967) | 0 | 8.8 | 12.1 | 5.5 |
| CACNG8 (GeneID 59283) | 0 | 13 | 10.8 | 15.3 |
| LOC391345 | 2 (active) | 22.8 | 24.8 | 20.7 |
| FNBP1L (GeneID 54874) | 1 | 5.2 | -9.4 | 19.9 |
| HGFAC (GeneID 3083) | 0 | -4.4 | -9.5 | 0.8 |
| SPATA31G1 (GeneID 138724) | 1 | 11.2 | 15.6 | 6.9 |
| LRRC7 (GeneID 57554) | 0 | 6.2 | 9.5 | 3 |
| CCDC191 (GeneID 57577) | 0 | 1.2 | 5 | -2.6 |
| LINC02843 (GeneID 286238) | 0 | 18 | 14.1 | 21.9 |
| LGR6 (GeneID 59352) | 0 | 7.5 | 5.1 | 9.9 |
| SUCLG1 (GeneID 8802) | 1 | 13.5 | 26.8 | 0.3 |
| LAMA4 (GeneID 3910) | -1 | -16.9 | -7.4 | -26.4 |
| CAPN12 (GeneID 147968) | 0 | -2.1 | -7.7 | 3.4 |
| LIN28A (GeneID 79727) | 0 | 11.6 | 9.8 | 13.4 |
| RPS4Y1 (GeneID 6192) | 1 | 8.9 | 23.3 | -5.5 |
| FUT6 (GeneID 2528) | -1 | 7.9 | 24.9 | -9 |
| B3GNT6 (GeneID 192134) | 1 | 11.7 | 4.9 | 18.6 |
